Test [1] deals with T1, endogenous IL-33 in human serum (human) (UniProt O95760).
T1 sequence (looked up): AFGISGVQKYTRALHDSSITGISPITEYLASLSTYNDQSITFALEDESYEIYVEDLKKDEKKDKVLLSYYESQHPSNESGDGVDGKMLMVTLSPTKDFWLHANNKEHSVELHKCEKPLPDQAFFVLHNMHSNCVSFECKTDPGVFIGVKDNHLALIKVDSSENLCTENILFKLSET
Description: ECL sandwich immunoassay (C-AD, acid treated) on human serum; excess rhST2 added with detection reagent.

Sequences of proteins named here, by UniProt entry; tags and fusion partners are left off. A change or cut given only in a name is not applied to a line headed by its entry. A line that says so, or that is headed by a name, gives the form on record, which may keep a tag or linker.
recombinant human ST2 (Q01638, form named): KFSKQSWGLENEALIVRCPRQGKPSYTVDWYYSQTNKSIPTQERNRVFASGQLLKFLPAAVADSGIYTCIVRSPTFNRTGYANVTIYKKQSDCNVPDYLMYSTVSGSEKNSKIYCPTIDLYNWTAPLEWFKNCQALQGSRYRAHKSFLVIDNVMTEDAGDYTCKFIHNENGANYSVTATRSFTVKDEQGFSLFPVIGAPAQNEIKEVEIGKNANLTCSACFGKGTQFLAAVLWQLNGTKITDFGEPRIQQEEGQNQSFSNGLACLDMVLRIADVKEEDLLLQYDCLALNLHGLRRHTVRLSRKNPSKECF

For test [2], the target named is T2, recombinant human IL-33 (human) (UniProt O95760).
T2 sequence (looked up): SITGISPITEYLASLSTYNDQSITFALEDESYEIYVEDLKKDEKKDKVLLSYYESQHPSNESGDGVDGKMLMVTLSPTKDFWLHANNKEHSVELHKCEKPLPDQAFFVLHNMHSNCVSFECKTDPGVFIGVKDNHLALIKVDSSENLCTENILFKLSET
Description: ECL sandwich immunoassay; recombinant IL-33 at 36 pg/mL with increasing recombinant soluble ST2; interference with detection.

No constants are given. Whether binding was seen depends on the method and setting. Some entries that bind do so weakly or less than the wild type.

For the substance “recombinant human ST2 (from UniProt Q01638 19-328) (receptor)”, the binding entry in test [1] and in test [2] was “binds” throughout.

The record behind these values is US20210033600A1.
